Measured values from doi:10.1101/2024.03.18.584613.
Results are given in words; binding and its absence hold for the method and conditions named. Binding seen in cells or lysates may run through a third protein. Sequences can lack the tags named with a protein.

Sequences of proteins named here, by UniProt entry; tags and fusion partners are left off.
UniProt Q3KP44: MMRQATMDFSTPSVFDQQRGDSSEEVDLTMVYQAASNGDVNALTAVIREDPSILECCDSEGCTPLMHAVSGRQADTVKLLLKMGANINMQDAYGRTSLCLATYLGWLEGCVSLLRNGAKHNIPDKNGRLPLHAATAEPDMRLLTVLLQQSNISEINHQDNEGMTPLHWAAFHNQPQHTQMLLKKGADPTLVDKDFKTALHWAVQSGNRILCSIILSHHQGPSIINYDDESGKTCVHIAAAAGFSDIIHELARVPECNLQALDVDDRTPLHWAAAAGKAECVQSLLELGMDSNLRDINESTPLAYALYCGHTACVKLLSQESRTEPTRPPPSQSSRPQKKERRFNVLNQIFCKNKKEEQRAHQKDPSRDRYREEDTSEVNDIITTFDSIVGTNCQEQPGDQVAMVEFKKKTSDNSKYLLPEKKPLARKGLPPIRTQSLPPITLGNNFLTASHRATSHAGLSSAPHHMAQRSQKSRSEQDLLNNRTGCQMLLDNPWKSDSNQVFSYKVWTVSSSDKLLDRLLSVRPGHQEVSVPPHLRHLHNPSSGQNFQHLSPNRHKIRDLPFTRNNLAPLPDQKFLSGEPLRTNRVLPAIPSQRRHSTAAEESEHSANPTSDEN

Target: ANKRD55-EGFP (human) (UniProt Q3KP44)
Test: co-IP

binding: no binding
B1: IFT74 fused to mCherry (protein, UniProt Q96LB3 1-600)
chain: MASNHKSSAARPVSRGGVGLTGRPPSGIRPLSGNIRVATAMPPGTARPGSRGCPIGTGGVLSSQIKVAHRPVTQQGLTGMKTGTKGPQRQILDKSYYLGLLRSKISELTTEVNKLQKGIEMYNQENSVYLSYEKRAETLAVEIKELQGQLADYNMLVDKLNTNTEMEEVMNDYNMLKAQNDRETQSLDVIFTERQAKEKQIRSVEEEIEQEKQATDDIIKNMSFENQVKYLEMKTTNEKLLQELDTLQQQLDSQNMKKESLEAEIAHSQVKQEAVLLHEKLYELESHRDQMIAEDKSIGSPMEEREKLLKQIKDDNQEIASMERQLTDTKEKINQFIEEIRQLDMDLEEHQGEMNQKYKELKKREEHMDTFIETFEETKNQELKRKAQIEANIVALLEHCSRNINRIEQISSITNQELKMMQDDLNFKSTEVQKSQSTAQNLTSDIQRLQLDLQKMELLESKMTEEQHSLKSKIKQMTTDLEIYNDLPALKSSGEEKIKKLHQERMILSTHRNAFKKIMEKQNIEYEALKTQLQENETHSQLTNLERKWQHLEQNNFAMKEFIATKSQESDYQPIKKNVTKQIAEYNKTIVDALHSTSGN
